# According to patent US20180044653A1, “Mutant Yeast Strain Capable of Degrading Cellobiose” (Institut National de la Recherche Agronomique, priority 2015, published 2018):
# The name of at least one read-out is uncertain.
# Legend:
# Type in all cases: biochemical
# [1] = Michaelis-Menten kinetics (glucose release); conditions: Cellopentaose, Glc × 5, β-1,4
# [2] = Michaelis-Menten kinetics (glucose release); conditions: Cellobiose, Glc × 2, β-1,4
# Text: When using aryl-substrates, the standard assay method was employed, simply replacing pNPGlc by another substrate as appropriate. For oligosaccharides, the release of glucose was quantified using an enzyme kit (D-Fructose/D-Glucose Assay Kit, liquid stable, Megazyme).
# [3] = Michaelis-Menten kinetics (glucose release); conditions: Cellotetraose, Glc × 4, β-1,4
# [4] = Michaelis-Menten kinetics (glucose release); conditions: Cellotriose, Glc × 3, β-1,4
# [5] = Michaelis-Menten kinetics (glucose release); conditions: Laminaribiose, Glc × 2, β-1,3
# [6] = Michaelis-Menten kinetics (glucose release); conditions: Sophorose, Glc × 2, β-1,2
# [7] = Michaelis-Menten kinetics (glucose release); conditions: Octylglucoside, C = 8
# [8] = Michaelis-Menten kinetics (glucose release); conditions: Cellohexaose, Glc × 6, β-1,4
# [9] = Michaelis-Menten kinetics (glucose release); conditions: Gentiobiose, Glc × 2, β-1,6
# [10] = Michaelis-Menten kinetics (glucose release); conditions: Methylglucoside, C = 1
molecule,measurement,setting,value
"Bgl2: β-glucosidase of Y. lipolytica encoded by BGL2 (YALI0B14289g), SEQ ID NO: 6, secreted to the culture medium (protein, listed as Yarrowia lipolytica) MLAFVLLLTMLLAAALADPFSDKDAYKHSPPYYPAPEIGRVPTDLRWRAALKVAQGMVANMTLLEKVNITTGTGWEMGPCVGNTGTVERLGIKSLCLQDGPLGIRFADLITTFPAGITIASTFSRQLVRERGAAMGRENRRKGVDITLSPVVGPLGRHANGGRIWEGFSADPYLAGKLAAEAVTGIQGQNVMAVVKHMVGNEQEHFRQLGEWQGFGFKDLKQPLSSNIDDRTLNEAYLWPFADAVRANVGSVMCSYQQINGSQGCQNAHILNGKLKEEMGFQGFVMSDWLAQRSGVASVLAGLDMSMPGDGLVWADGVPLMGYELTRSVLNGTIDESRVDDMVTRILTPILYLSITPTDPNFSSWTNDTTSYKYYGAKAGGNVTVNRHIDVRDQYTTKAALDGANAALVLLKNEKKTLPLNPTNIGNLNIFGIGSKTGPLGAVCGENMQCSDGALIEGWGSGSVYPTDYQSPYDAIKERASKDNITIGGTTQSWGNLSNVEILSAAADASVVFVLSDSGESTGIVDGNIGDRNNLTLWHNGDEVVKAVASKNPNTIVVVTTVGPVNLEKWIDNPNVTAVLLTGPAGDFGGRAAASILFGDIAPSGKLPFTIAKNDTDYIPLTTKIPEDGLPQDYFTEGTLLDYKRFDENQVTPRFEFGYGLSYSNITVENLEARYAFPSIPEFLPTPFAPSNPNKPKNAFTPHANESVFPSDIDPLNKYVYPYLNDTSEIFSNETHYPYPEGYSSEQSNSTNINGGAVGGNPALWLSAVYIVHSVSNYGPYDTGVVTQMYIAFPQDNDDLKTAPRQLRGFERSELKVGERQGILYDVQWRDLAVWDVKLQSWRVQRGEYKVYVGHSSRDFVLTTSFTLK",kcat/KM,[1],12300 M⁻¹ s⁻¹
same,kcat/KM,[2],6500 M⁻¹ s⁻¹
same,kcat/KM,[3],11000 M⁻¹ s⁻¹
same,kcat/KM,[4],9600 M⁻¹ s⁻¹
same,kcat/KM,[5],237200 M⁻¹ s⁻¹
same,kcat/KM,[6],17200 M⁻¹ s⁻¹
same,kcat/KM,[7],85200 M⁻¹ s⁻¹
same,kcat/KM,[8],12900 M⁻¹ s⁻¹
same,kcat/KM,[9],101400 M⁻¹ s⁻¹
same,kcat/KM,[10],5500 M⁻¹ s⁻¹
